Results are given in words; binding and its absence hold for the method and conditions named. A result given as binding can be weak or reduced; the word gives no strength.

Here are results for one substance from patent publication EP1224288B1.

For test [1], the target named is T1, chemokine receptor CCR1 (human) (UniProt P32246).
T1 sequence (looked up): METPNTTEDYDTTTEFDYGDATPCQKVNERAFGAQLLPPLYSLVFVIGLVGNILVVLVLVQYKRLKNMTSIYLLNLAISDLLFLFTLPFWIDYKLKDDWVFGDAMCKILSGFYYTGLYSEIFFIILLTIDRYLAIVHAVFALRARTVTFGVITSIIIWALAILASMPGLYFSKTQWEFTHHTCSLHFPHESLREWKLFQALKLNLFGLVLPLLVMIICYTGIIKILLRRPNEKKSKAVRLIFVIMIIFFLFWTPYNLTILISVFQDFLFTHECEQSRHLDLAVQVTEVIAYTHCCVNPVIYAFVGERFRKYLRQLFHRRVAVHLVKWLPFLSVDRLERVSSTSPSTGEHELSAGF
As to the kind of experiment: radioligand binding, membranes of CHO-K1 cells expressing CCR1.

For test [2], the target named is T2, chemokine receptor CCR3 (human) (UniProt P51677).
T2 sequence (looked up): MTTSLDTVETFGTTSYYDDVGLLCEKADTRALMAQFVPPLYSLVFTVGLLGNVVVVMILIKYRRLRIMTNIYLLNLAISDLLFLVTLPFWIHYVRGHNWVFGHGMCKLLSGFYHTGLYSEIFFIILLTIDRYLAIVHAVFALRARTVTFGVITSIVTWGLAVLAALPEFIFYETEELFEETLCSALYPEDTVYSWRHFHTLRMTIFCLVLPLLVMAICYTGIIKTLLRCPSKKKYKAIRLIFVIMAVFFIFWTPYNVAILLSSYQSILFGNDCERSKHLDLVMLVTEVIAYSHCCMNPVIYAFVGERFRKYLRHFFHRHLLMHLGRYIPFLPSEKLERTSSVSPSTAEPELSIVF
As to the kind of experiment: radioligand binding, membranes of CHO-K1 cells expressing CCR3.

Turning to “processed chemokine PHC-1 (HCC-1, residues 9-74) (ligand)”, the binding entry in test [1] and in test [2] was “binds” each time.
